# Results: PMC7753874
# Amino acid sequences for entries named in this document (tags omitted).
# UniProt Q8BUN5: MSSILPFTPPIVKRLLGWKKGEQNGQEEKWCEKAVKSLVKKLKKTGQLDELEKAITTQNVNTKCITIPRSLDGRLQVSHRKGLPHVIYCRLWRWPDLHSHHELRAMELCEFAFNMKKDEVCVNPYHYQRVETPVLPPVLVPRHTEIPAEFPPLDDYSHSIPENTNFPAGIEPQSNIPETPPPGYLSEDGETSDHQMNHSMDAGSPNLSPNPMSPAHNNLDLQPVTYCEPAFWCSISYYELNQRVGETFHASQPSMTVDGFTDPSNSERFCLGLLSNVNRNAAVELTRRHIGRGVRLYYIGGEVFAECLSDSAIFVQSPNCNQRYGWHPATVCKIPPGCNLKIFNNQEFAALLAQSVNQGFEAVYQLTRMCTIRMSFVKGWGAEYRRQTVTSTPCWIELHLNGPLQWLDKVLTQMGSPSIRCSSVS
# Read-outs that look alike come from different tables or passages of the source. No constants are given. Whether binding was seen depends on the method and setting. For part of these data: Binding seen in cells or lysates may run through a third protein. Some binding calls cover weakened binding; strength is not graded here. For part of these data: Sequences can lack the tags named with a protein.
# T1: exogenous Smad4 expressed in mouse lung pericytes, P97471
# T1 chain: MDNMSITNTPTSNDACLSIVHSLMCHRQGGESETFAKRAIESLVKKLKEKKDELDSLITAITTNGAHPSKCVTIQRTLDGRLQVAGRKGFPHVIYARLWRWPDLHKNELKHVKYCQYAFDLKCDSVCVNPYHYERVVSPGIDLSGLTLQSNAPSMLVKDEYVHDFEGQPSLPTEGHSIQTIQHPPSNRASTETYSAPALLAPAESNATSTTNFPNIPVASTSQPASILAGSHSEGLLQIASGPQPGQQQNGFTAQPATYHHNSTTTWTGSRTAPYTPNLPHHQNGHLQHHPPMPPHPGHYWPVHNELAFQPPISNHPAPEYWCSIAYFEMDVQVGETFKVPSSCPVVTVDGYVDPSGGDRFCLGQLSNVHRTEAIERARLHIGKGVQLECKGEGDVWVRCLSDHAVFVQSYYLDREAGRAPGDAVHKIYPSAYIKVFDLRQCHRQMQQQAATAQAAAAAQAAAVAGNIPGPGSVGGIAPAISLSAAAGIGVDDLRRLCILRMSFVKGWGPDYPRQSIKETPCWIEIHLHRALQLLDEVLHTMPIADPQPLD
# T2: Smad4 (Sma and Mad homologue 4) of mouse lung pericytes (mouse (endogenous in mouse lung pericytes)), P97471
# T2 chain: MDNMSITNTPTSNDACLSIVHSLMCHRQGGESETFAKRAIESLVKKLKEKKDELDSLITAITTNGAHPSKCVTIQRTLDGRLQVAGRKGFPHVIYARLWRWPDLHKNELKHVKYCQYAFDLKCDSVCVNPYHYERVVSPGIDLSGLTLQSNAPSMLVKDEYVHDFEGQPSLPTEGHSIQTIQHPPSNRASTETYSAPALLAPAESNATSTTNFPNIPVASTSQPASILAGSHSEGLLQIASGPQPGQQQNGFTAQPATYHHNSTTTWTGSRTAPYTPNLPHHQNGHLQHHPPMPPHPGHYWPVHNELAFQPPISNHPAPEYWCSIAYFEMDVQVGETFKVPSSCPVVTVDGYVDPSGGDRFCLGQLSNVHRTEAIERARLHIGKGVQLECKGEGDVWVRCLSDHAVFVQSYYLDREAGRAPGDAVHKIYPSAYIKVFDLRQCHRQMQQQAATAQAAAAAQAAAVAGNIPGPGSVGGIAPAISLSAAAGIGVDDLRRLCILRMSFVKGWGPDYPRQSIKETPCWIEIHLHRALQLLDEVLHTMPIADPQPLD
# Legend:
# [1] = target: Smad3 (Sma and Mad homologue 3) of mouse lung pericytes (mouse (endogenous in mouse lung pericytes)) (UniProt Q8BUN5); assay: co-IP; Pierce Co-Immunoprecipitation Kit; the cells' own proteins in lysates of mouse lung pericytes; with or without TGF-β1 (5 ng/mL, 1 h or 2 h); in Figure 6B cells also transfected with FoxM1- and TIF1γ-expressing plasmids, in Figure 6E with Smad3 siRNAs or negative control
# [2] = target: recombinant GST-Smad3 (Sma and Mad homologue 3) (UniProt Q8BUN5); assay: pull-down; GST-Smad3 incubated with His-FoxM1; Pierce GST Protein Interaction Pull-Down Kit; resins washed with PBS; Western blotting with antibodies targeting FoxM1; both purified
# [3] = target: phosphorylated Smad3 of mouse lung pericytes (mouse (endogenous in mouse lung pericytes)) (UniProt Q8BUN5); assay: co-IP; Pierce Co-Immunoprecipitation Kit; the cells' own proteins in lysates of mouse lung pericytes; with or without TGF-β1 (5 ng/mL, 1 h or 2 h); in Figure 6B cells also transfected with FoxM1- and TIF1γ-expressing plasmids, in Figure 6E with Smad3 siRNAs or negative control
# [4] = target: Smad3 (Sma and Mad homologue 3) of mouse lung pericytes (mouse (endogenous in mouse lung pericytes)) (UniProt Q8BUN5); assay: as above; remark: listed apart in the source
# [5] = target: T1, exogenous Smad4 expressed in mouse lung …; assay: co-IP; Pierce Co-Immunoprecipitation Kit; mouse lung pericytes transfected with the indicated plasmids, with or without FoxM1 overexpression; TGF-β1 5 ng/mL for 16 h (Smad4 with TIF1γ) or 2 h (Smad3 with TIF1γ); settings: remark: other sources report otherwise
# [6] = target: T2, Smad4 (Sma and Mad homologue 4) of …; assay: co-IP; Pierce Co-Immunoprecipitation Kit; the cells' own proteins in lysates of mouse lung pericytes; with or without TGF-β1 (5 ng/mL, 1 h or 2 h); in Figure 6B cells also transfected with FoxM1- and TIF1γ-expressing plasmids, in Figure 6E with Smad3 siRNAs or negative control; settings: remark: other sources report otherwise
molecule,measurement,setting,value
Smad4 (Sma and Mad homologue 4) of mouse lung pericytes (from UniProt P97471 1-551),binding,[1],binds
"recombinant 6X His-tagged FoxM1 (Forkhead box M1) (protein, UniProt O08696 1-760) MRTSPRRPLILKRRRLPLPVQNAPSETSEEEAKRSPAQPEPAPAQASQEVAESSSCKFPAGIKIINHPTTPNTQVVAIPSNADIQSIITALTAKGKESGTSGPNRFILISSGGPSSHPSQPQAHSSRDSKRAEVITETLGPKPAAKGVPVPKPPGAPPRQRQESYAGGEAAGCTLDNSLTNIQWLGKMSSDGLGPCSVKQELEEKENCHLEQNRVKVEEPSGVSTSWQDSVSERPPYSYMAMIQFAINSTERKRMTLKDIYTWIEDHFPYFKHIAKPGWKNSIRHNLSLHDMFVRETSANGKVSFWTIHPSANRHLTLDQVFKPLEPGSPQSPEHLESQQKRPNPELHRNVTIKTEIPLGARRKMKPLLPRVSSYLEPIQFPVNQSLVLQPSVKVPFRLAASLMSSELARHSKRVRIAPKVLLSSEGIAPLPATEPPKEEKPLLGGEGLLPLLPIQSIKEEEMQPEEDIAHLERPIKVESPPLEEWPSPCASLKEELSNSWEDSSCSPTPKPKKSYCGLKSPTRCVSEMLVTKRREKREVSRSRRKQHLQPPCLDEPDLFFPEDSSTFRPAVELLAESSEPAPHLSCPQEEGGPFKTPIKETLPVSSTPSKSVLSRDPESWRLTPPAKVGGLDFSPVRTPQGAFGLLPDSLGLMELNTTPLKSGPLFDSPRELLNSEPFDLASDPFGSPPPPHVEGPKPGSPELQIPSLSANRSLTEGLVLDTMNDSLSKILLDISFPGLEEDPLGPDNINWSQFIPELR",binding,[2],binds
"endogenous FoxM1 (Forkhead box M1) of mouse lung pericytes (protein, UniProt O08696 1-760) MRTSPRRPLILKRRRLPLPVQNAPSETSEEEAKRSPAQPEPAPAQASQEVAESSSCKFPAGIKIINHPTTPNTQVVAIPSNADIQSIITALTAKGKESGTSGPNRFILISSGGPSSHPSQPQAHSSRDSKRAEVITETLGPKPAAKGVPVPKPPGAPPRQRQESYAGGEAAGCTLDNSLTNIQWLGKMSSDGLGPCSVKQELEEKENCHLEQNRVKVEEPSGVSTSWQDSVSERPPYSYMAMIQFAINSTERKRMTLKDIYTWIEDHFPYFKHIAKPGWKNSIRHNLSLHDMFVRETSANGKVSFWTIHPSANRHLTLDQVFKPLEPGSPQSPEHLESQQKRPNPELHRNVTIKTEIPLGARRKMKPLLPRVSSYLEPIQFPVNQSLVLQPSVKVPFRLAASLMSSELARHSKRVRIAPKVLLSSEGIAPLPATEPPKEEKPLLGGEGLLPLLPIQSIKEEEMQPEEDIAHLERPIKVESPPLEEWPSPCASLKEELSNSWEDSSCSPTPKPKKSYCGLKSPTRCVSEMLVTKRREKREVSRSRRKQHLQPPCLDEPDLFFPEDSSTFRPAVELLAESSEPAPHLSCPQEEGGPFKTPIKETLPVSSTPSKSVLSRDPESWRLTPPAKVGGLDFSPVRTPQGAFGLLPDSLGLMELNTTPLKSGPLFDSPRELLNSEPFDLASDPFGSPPPPHVEGPKPGSPELQIPSLSANRSLTEGLVLDTMNDSLSKILLDISFPGLEEDPLGPDNINWSQFIPELR",binding,[3],binds
same,binding,[4],binds
"overexpressed TIF1γ (transcriptional intermediary factor 1 γ) in mouse lung pericytes, Q99PP7 1-1142 (protein) MAENKGGGEAESGGGGSGSAPVTAGAAGPTAQEAEPPLAAVLVEEEEEEGGRAGAEGGAAGPDDGGVAAASSSSAPAASVPAASVGSAVPGGAASTPAPAAAPAPAPAPAPAPAPAPAPAPAPGSSSGPPLGPPASLLDTCAVCQQSLQSRREAEPKLLPCLHSFCLRCLPEPERQLSVPIPGGSNGDVQQVGVIRCPVCRQECRQIDLVDNYFVKDTSEAPSSSDEKSEQVCTSCEDNASAVGFCVECGEWLCKTCIEAHQRVKFTKDHLIRKKEDVSESVGTSGQRPVFCPVHKQEQLKLFCETCDRLTCRDCQLLEHKEHRYQFLEEAFQNQKGAIENLLAKLLEKKNYVHFAATQVQNRIKEVNETNKRVEQEIKVAIFTLINEINKKGKSLLQQLENVTKERQMKLLQQQNDITGLSRQVKHVMNFTNWAIASGSSTALLYSKRLITFQLRHILKARCDPVPAANGAIRFHCDPTFWAKNVVNLGNLVIESKPAPGYTPNVVVGQVPPGTNHISKTPGQINLAQLRLQHMQQQVYAQKHQQLQQMRLQQPPAPIPTTTATTQQHPRQAAPQMLQQQPPRLISVQTMQRGNMNCGAFQAHQMRLAQNAARIPGIPRHSAPQYSMMQPHLQRQHSNPGHAGPFPVVSAHNPINPTSPTTATMANANRGPTSPSVTAIELIPSVTNPENLPSLPDIPPIQLEDAGSSSLDNLLSRYISGSHLPPQPTSTMNPSPGPSALSPGSSGLSNSHTPVRPPSTSSTGSRGSCGSSGRTAEKSAHSFKSDQVKVKQEPGTEEEICSFSGAVKQEKTEDGRRSACMLSSPESSLTPPLSTNLHLESELDTLTGLENHVKTEPTDISESCKQSGLSNLVNGKSPIRNLMHRSARIGGDGNSKDDDPNEDWCAVCQNGGDLLCCEKCPKVFHLTCHVPTLLSFPSGDWICTFCRDIGKPEVEYDCDNMQHSKKGKTAQGLSPVDQRKCERLLLYLYCHELSIEFQEPVPVSIPNYYKIIKKPMDLSTVKKKLQKKHSQHYQIPDDFVADVRLIFKNCERFNEMMKVVQVYADTQEINLKGDSEVAKAGKAVALYFEDKLSEIYSDRTFTPLPEFEQDEDDGEVTEDSDEDFIQPRRKRLKSDERPVHIK",binding,[5],binds
"TIF1γ (transcriptional intermediary factor 1 γ) of mouse lung pericytes, Q99PP7 1-1142 (protein) MAENKGGGEAESGGGGSGSAPVTAGAAGPTAQEAEPPLAAVLVEEEEEEGGRAGAEGGAAGPDDGGVAAASSSSAPAASVPAASVGSAVPGGAASTPAPAAAPAPAPAPAPAPAPAPAPAPAPGSSSGPPLGPPASLLDTCAVCQQSLQSRREAEPKLLPCLHSFCLRCLPEPERQLSVPIPGGSNGDVQQVGVIRCPVCRQECRQIDLVDNYFVKDTSEAPSSSDEKSEQVCTSCEDNASAVGFCVECGEWLCKTCIEAHQRVKFTKDHLIRKKEDVSESVGTSGQRPVFCPVHKQEQLKLFCETCDRLTCRDCQLLEHKEHRYQFLEEAFQNQKGAIENLLAKLLEKKNYVHFAATQVQNRIKEVNETNKRVEQEIKVAIFTLINEINKKGKSLLQQLENVTKERQMKLLQQQNDITGLSRQVKHVMNFTNWAIASGSSTALLYSKRLITFQLRHILKARCDPVPAANGAIRFHCDPTFWAKNVVNLGNLVIESKPAPGYTPNVVVGQVPPGTNHISKTPGQINLAQLRLQHMQQQVYAQKHQQLQQMRLQQPPAPIPTTTATTQQHPRQAAPQMLQQQPPRLISVQTMQRGNMNCGAFQAHQMRLAQNAARIPGIPRHSAPQYSMMQPHLQRQHSNPGHAGPFPVVSAHNPINPTSPTTATMANANRGPTSPSVTAIELIPSVTNPENLPSLPDIPPIQLEDAGSSSLDNLLSRYISGSHLPPQPTSTMNPSPGPSALSPGSSGLSNSHTPVRPPSTSSTGSRGSCGSSGRTAEKSAHSFKSDQVKVKQEPGTEEEICSFSGAVKQEKTEDGRRSACMLSSPESSLTPPLSTNLHLESELDTLTGLENHVKTEPTDISESCKQSGLSNLVNGKSPIRNLMHRSARIGGDGNSKDDDPNEDWCAVCQNGGDLLCCEKCPKVFHLTCHVPTLLSFPSGDWICTFCRDIGKPEVEYDCDNMQHSKKGKTAQGLSPVDQRKCERLLLYLYCHELSIEFQEPVPVSIPNYYKIIKKPMDLSTVKKKLQKKHSQHYQIPDDFVADVRLIFKNCERFNEMMKVVQVYADTQEINLKGDSEVAKAGKAVALYFEDKLSEIYSDRTFTPLPEFEQDEDDGEVTEDSDEDFIQPRRKRLKSDERPVHIK",binding,[6],binds
